Reference: the supplement of paper PMC12024529
Counter-ions that a name gives are not always drawn. The list shows a part of the results. Baselines shift from plate to plate; read single values as rough.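 Wild-type or misfolding-prone missense mutant B-domain-deleted factor VIII, fused to Gaussia luciferase, is stably expressed in HEK293 lines. Each score is (mean triplicate-well luminescence minus DMSO mean) divided by DMSO standard deviation. Hits score at least 2; lower scores could stem from decreased secretion or poorer cell viability.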

Assays:
HEK293 WT BDD-FVIII-Gluc = test: secreted FVIII-Gluc luciferase Z-score vs DMSO control; higher = more FVIII-Gluc secretion; conditions: 5 µM; 24 h
[1] = test system: HEK293 p.N1941S BDD-FVIII-Gluc; test: as above; conditions: 5 µM; 24 h

## O=P1(N(CCCl)CCCl)NCCCO1 (stereo not given) [Cyclophosphamide monohydrate]
HEK293 WT BDD-FVIII-Gluc
  secreted FVIII-Gluc luciferase Z-score: inactive: -1.42
[1]
  secreted FVIII-Gluc luciferase Z-score: inactive: -1.46

## CNCC(=O)c1ccc(O)c(O)c1 [Adrenalone HCl]
HEK293 WT BDD-FVIII-Gluc
  secreted FVIII-Gluc luciferase Z-score: inactive: -0.977
[1]
  secreted FVIII-Gluc luciferase Z-score: inactive: 0.7

## CCC1(C)CC(=O)NC(=O)C1 [Bemegride]
HEK293 WT BDD-FVIII-Gluc
  secreted FVIII-Gluc luciferase Z-score: inactive: -0.895
[1]
  secreted FVIII-Gluc luciferase Z-score: inactive: 1.74

## Nc1nc(N)nc(NC2CC2)n1 [Cyromazine]
HEK293 WT BDD-FVIII-Gluc
  secreted FVIII-Gluc luciferase Z-score: inactive: -1.82
[1]
  secreted FVIII-Gluc luciferase Z-score: inactive: 1.55

## CC(=O)Nc1cc([As](=O)(O)O)ccc1O [Acetarsone]
HEK293 WT BDD-FVIII-Gluc
  secreted FVIII-Gluc luciferase Z-score: inactive: -1.19
[1]
  secreted FVIII-Gluc luciferase Z-score: inactive: -0.537

## C[C@@H]1O[C@@H](O[C@H]2C[C@@H](O)[C@]3(CO)[C@H]4[C@H](O)C[C@]5(C)[C@@H](C6=CC(=O)OC6)CC[C@]5(O)[C@@H]4CC[C@]3(O)C2)[C@H](O)[C@H](O)[C@H]1O [Ouabain]
HEK293 WT BDD-FVIII-Gluc
  secreted FVIII-Gluc luciferase Z-score: inactive: -3.89
[1]
  secreted FVIII-Gluc luciferase Z-score: inactive: -5.69

## CC(C)N(CCC(C(N)=O)(c1ccccc1)c1ccccn1)C(C)C (stereo not given) [Disopyramide Phosphate]
HEK293 WT BDD-FVIII-Gluc
  secreted FVIII-Gluc luciferase Z-score: inactive: 1.36
[1]
  secreted FVIII-Gluc luciferase Z-score: inactive: 0.858

## C[C@]12CC[C@H]3[C@@H](CC[C@@]45O[C@@H]4C(O)=C(C#N)C[C@]35C)[C@@H]1CC[C@@H]2O [Trilostane]
HEK293 WT BDD-FVIII-Gluc
  secreted FVIII-Gluc luciferase Z-score: inactive: -4.12
[1]
  secreted FVIII-Gluc luciferase Z-score: inactive: -0.264

## CC(C)=CC1C(C(=O)OCc2cccc(Oc3ccccc3)c2)C1(C)C (stereo not given) [Phenothrin]
HEK293 WT BDD-FVIII-Gluc
  secreted FVIII-Gluc luciferase Z-score: inactive: -0.222
[1]
  secreted FVIII-Gluc luciferase Z-score: inactive: 1.37

## CCN(C)C(=O)Oc1cccc([C@H](C)N(C)C)c1 [Rivastigmine tartrate (Exelon)]
HEK293 WT BDD-FVIII-Gluc
  secreted FVIII-Gluc luciferase Z-score: inactive: 0.166
[1]
  secreted FVIII-Gluc luciferase Z-score: inactive: 0.909
